Results are given in words; binding and its absence hold for the method and conditions named. In cells and extracts the contact can be indirect. Some results given as binding are weak or reduced against the parent protein; the word gives no strength. Where a sequence is shown, tags or fusion partners need not be part of it.
T1: FLAG-tagged Rab40C-ΔSOCS, SOCS box deletion mutant (mouse) (UniProt Q8VHQ4)
T1 sequence: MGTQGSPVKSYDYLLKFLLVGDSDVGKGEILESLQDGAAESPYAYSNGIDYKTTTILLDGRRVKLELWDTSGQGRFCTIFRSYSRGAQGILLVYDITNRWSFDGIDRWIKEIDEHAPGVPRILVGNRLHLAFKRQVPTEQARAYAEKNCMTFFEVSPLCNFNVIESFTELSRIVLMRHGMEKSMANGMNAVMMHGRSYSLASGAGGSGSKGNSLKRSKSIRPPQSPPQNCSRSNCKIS

T2: FLAG-tagged Rab40C-Q73L, constitutive active mutant (mouse) (UniProt Q8VHQ4)
T2 sequence: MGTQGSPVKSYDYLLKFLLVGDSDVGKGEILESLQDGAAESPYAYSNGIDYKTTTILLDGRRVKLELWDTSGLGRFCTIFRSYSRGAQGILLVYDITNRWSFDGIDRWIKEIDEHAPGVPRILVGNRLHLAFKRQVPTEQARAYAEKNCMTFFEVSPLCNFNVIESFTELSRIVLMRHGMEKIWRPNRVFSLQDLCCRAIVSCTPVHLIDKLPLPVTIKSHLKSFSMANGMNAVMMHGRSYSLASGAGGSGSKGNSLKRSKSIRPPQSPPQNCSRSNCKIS

T3: FLAG-tagged Rab40C, wild type (pEF-FLAG-Rab40C) (mouse) (UniProt Q8VHQ4)
T3 sequence: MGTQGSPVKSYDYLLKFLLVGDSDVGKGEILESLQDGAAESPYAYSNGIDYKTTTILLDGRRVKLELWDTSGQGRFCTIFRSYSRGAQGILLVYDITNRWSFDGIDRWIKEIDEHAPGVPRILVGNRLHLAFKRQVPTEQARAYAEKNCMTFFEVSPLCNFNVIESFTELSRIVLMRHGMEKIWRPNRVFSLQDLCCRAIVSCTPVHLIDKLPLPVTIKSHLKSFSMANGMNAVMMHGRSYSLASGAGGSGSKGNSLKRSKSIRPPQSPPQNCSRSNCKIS

T4: FLAG-tagged Rab40C-G28N, constitutive negative mutant (mouse) (UniProt Q8VHQ4)
T4 sequence: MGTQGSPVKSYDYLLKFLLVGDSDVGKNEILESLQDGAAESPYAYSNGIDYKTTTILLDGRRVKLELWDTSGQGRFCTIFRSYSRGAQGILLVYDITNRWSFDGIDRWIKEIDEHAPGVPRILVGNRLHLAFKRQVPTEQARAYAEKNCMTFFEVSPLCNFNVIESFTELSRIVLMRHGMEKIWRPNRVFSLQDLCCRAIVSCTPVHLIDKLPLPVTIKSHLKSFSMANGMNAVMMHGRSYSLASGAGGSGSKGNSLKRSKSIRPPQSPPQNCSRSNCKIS

T5: FLAG-tagged Rab40C expressed in melanocytes (mouse) (UniProt Q8VHQ4)
T5 sequence: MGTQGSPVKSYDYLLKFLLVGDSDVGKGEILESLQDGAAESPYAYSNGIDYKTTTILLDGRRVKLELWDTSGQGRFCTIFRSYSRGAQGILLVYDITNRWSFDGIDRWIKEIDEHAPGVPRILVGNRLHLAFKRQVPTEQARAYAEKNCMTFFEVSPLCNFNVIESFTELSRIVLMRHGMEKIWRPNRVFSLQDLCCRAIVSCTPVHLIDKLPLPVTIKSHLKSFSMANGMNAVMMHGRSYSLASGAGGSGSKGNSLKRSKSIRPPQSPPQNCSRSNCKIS


Experiments:
[1] = target: T1, FLAG-tagged Rab40C-ΔSOCS, SOCS box deletion mutant (mouse); assay: co-IP; COS-7 cells co-transfected with pEF-T7-Varp and pEF-FLAG-Rab40C (WT, Q73L, G28N or ΔSOCS); lysis in 50 mM HEPES-KOH pH 7.2, 150 mM NaCl, 1 mM MgCl2, 1% Triton X-100; anti-FLAG tag antibody-conjugated agarose beads
[2] = target: T2, FLAG-tagged Rab40C-Q73L, constitutive active mutant (mouse); assay: as above
[3] = target: T3, FLAG-tagged Rab40C, wild type (pEF-FLAG-Rab40C) (mouse); assay: as above
[4] = target: T4, FLAG-tagged Rab40C-G28N, constitutive negative mutant (mouse); assay: as above
[5] = target: T5, FLAG-tagged Rab40C expressed in melanocytes (mouse); assay: co-IP; FLAG-tagged Rab40C and endogenous Varp in melanocytes (supplementary Fig. S2)

binding [1]	binding [2]	binding [3]	binding [4]	binding [5]	Binder
binds	binds	binds	binds weakly	–	T7-tagged full-length Varp (pEF-T7-Varp) (protein, UniProt Q3UMR0 1-1048) MALYDEDLLKNPFYLALQKWRPDLCSKVAQIHGIVLVPCRGSLPGSVQASCQFESYVLVPTEGHFQTLDGKAVVIEGNRIKLGAGFACLLSVPILFEETFYNEKEESFSILCIAHPLERRETSEEPSAPADPFSLKTIEDVREFLGRHSEKFDKNIASFHRTFRECERKSLRHHIDSVNALYTKCLQQLLRDSHLKVLAKQEAQMNLMKQAVEMYVHHDIYDLIFKYVGTMEASEDAAFNKITRSLQDLQQKDIGVKPEFSFNIPRAKRELGQLNKCTSPQQKLLCLRKVVQLMTQSPSQRVNLETMCADDLLSVLLYLLVKTEIPNWMANLSYIKNFRFSSSAKDELGYCLTSVEAAIEYIRQGSLSTKTPDAEGFGDRLFLKQRMNLLSQMTSTPIDCLFKHIASGNQKEVERLLSQDDQDKDAMQKMCHPLCSCEDCEKLISGRLNDPSVVTPFSRDDRGQTPLHVAALCGQASLIDFLVSKGAVVNATDYHGSTPLHLACQKGFQSVTLLLLHYKASTEVQDNNGNTPLHLACTYGQEDCVKALVYYDVQACRLDIGNEKGDTALHIAARWGYEGIIETLLQNGAPTAVQNRLKETPLKCALNSKILSIMEAHHLSSDRRPRPSEVPAQSPTRSVDSISQGSSTSSFSSISVSFRQEEVKKDYREVEKLLRAVADGDLEMVRYLLEWTEDDLDDVEDAISTVDLEFCHPLCQCPKCAPAQKLARISANGLSVNVTNQDGFSPLHMAALHGRTDLVPLLLKHGAYSGARNTSQAVPLHLACQQGHFQVAKCLLDSNAKPNKKDLSGNTPLICACSAGHHEVAALLLQHGASINACNNKGNTALHEAVMGRHTLVVELLLFYGASVDILNKRQYTAADCAEQDSKIMELLQVVPGCVASLDSVEEADHEGYVTVEIRRKWNPKMYNLPEEPLRRQFCLINPGGRFQERTSRETMGRDRSVPDLAGRSLQEPEKQRVTGKQSDLSDLSRYQTSEEGNKGLPERPVSRQAAPGHRPMVRRHTVNDAAILQVPEVTVHLTTHEASVPQS
–	–	–	–	binds	endogenous Varp in melanocytes (protein, UniProt Q3UMR0 1-1048) MALYDEDLLKNPFYLALQKWRPDLCSKVAQIHGIVLVPCRGSLPGSVQASCQFESYVLVPTEGHFQTLDGKAVVIEGNRIKLGAGFACLLSVPILFEETFYNEKEESFSILCIAHPLERRETSEEPSAPADPFSLKTIEDVREFLGRHSEKFDKNIASFHRTFRECERKSLRHHIDSVNALYTKCLQQLLRDSHLKVLAKQEAQMNLMKQAVEMYVHHDIYDLIFKYVGTMEASEDAAFNKITRSLQDLQQKDIGVKPEFSFNIPRAKRELGQLNKCTSPQQKLLCLRKVVQLMTQSPSQRVNLETMCADDLLSVLLYLLVKTEIPNWMANLSYIKNFRFSSSAKDELGYCLTSVEAAIEYIRQGSLSTKTPDAEGFGDRLFLKQRMNLLSQMTSTPIDCLFKHIASGNQKEVERLLSQDDQDKDAMQKMCHPLCSCEDCEKLISGRLNDPSVVTPFSRDDRGQTPLHVAALCGQASLIDFLVSKGAVVNATDYHGSTPLHLACQKGFQSVTLLLLHYKASTEVQDNNGNTPLHLACTYGQEDCVKALVYYDVQACRLDIGNEKGDTALHIAARWGYEGIIETLLQNGAPTAVQNRLKETPLKCALNSKILSIMEAHHLSSDRRPRPSEVPAQSPTRSVDSISQGSSTSSFSSISVSFRQEEVKKDYREVEKLLRAVADGDLEMVRYLLEWTEDDLDDVEDAISTVDLEFCHPLCQCPKCAPAQKLARISANGLSVNVTNQDGFSPLHMAALHGRTDLVPLLLKHGAYSGARNTSQAVPLHLACQQGHFQVAKCLLDSNAKPNKKDLSGNTPLICACSAGHHEVAALLLQHGASINACNNKGNTALHEAVMGRHTLVVELLLFYGASVDILNKRQYTAADCAEQDSKIMELLQVVPGCVASLDSVEEADHEGYVTVEIRRKWNPKMYNLPEEPLRRQFCLINPGGRFQERTSRETMGRDRSVPDLAGRSLQEPEKQRVTGKQSDLSDLSRYQTSEEGNKGLPERPVSRQAAPGHRPMVRRHTVNDAAILQVPEVTVHLTTHEASVPQS
